The whole screen tested about 53,000 sequences, of which about 3,700 (7%) were called active.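 The calls were made as follows: active = gene knockdowns whose robust z-score for IL-1 alpha signal is at least 2 or at most -2, so actives lie on both sides; inactive = the rest.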 The list shows a part of the results.

This assay in a line: Components of the Cytosolic LPS Sensing Pathway: Gene Identification via Genome-wide siRNA Screen.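 Also: robust z of the log signal after scaling to non-targeting control siRNA wells of the plate.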 The following applies: RAW264.7 macrophages, IL-1a HTRF, actives lie on both sides, screened at 100 nM (by protocol), cells primed 5 h with Pam3CSK4 first. The method, boiled down: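 Read-out: IL-1a HTRF on supernatant, divided by plate negative-control median ×100, log-transformed and converted to robust z-score. Cells were RAW264.7 given 100 nM siRNA, Pam3CSK4-primed 5 hours, then LipidA-transfected 24 hour.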
With GGAGAUUGAGGCACUGAAGTT against Srms, the z-score was inactive: 1.36.

For the sequence GGAUGAGGACAAACACGUGTT against Ccdc124, the z-score is inactive: -0.491.

Turning to GGACACCAAUCACAUUUGATT against Cngb3, the z-score was active: -2.21.

On to CGAUCUGUGCAACAUCCUGTT against Kcnk18, for which the z-score is inactive: -0.598.

Consider CCAUAUUUCGCUAUGGUGCTT against C87436, for which the z-score is inactive: 0.241.

GGACAGUAUAGUGGAGAUCTT against Fgf22: the z-score was inactive: 1.66.

In the case of CCACUCCUUACAUGACCAATT against Polr2f, the z-score is inactive: -1.5.

Take GCUAGGUCAGGGAGUUUUATT against Exosc2: the z-score was active: 3.33.

For GGUAUAUUCGUUCAACAAUTT against Samd9l, the z-score is inactive: -0.842.

As for GGACUGAACUUCUCAAUGUTT against Folr1, the z-score is inactive: 0.0527.

GGUUCUGUAUUUAUCUUAGTT against Olfr448: the z-score was inactive: 0.117.

On to GGUGAAGAUAAGUAUCUGCTT against Mug2, for which the z-score was inactive: -0.0586.

Take GGUGAAGGUUAAAGAUAUUTT against Pcdha1: the z-score was inactive: -0.0756.

On to GGCUGGGUUCCAAAAUACUTT against Crbn, for which the z-score is inactive: 1.01.

In the case of GGGAUUUCAUAACUGCACUTT against Btrc, the z-score was inactive: 0.48.

For the sequence CCUCAUCACACAGGACCCATT against Ppp6r2, the z-score is inactive: -1.59.

For GUCUUUGGAAAUCUACUCATT against Olfr1189, the z-score is inactive: -1.21.

Turning to CCAAUACCAUGACAUUGGGTT against Fabp1, the z-score is inactive: -0.175.

As for GGAUGAGCAAUAAUAGAAUTT against Ott, the z-score was inactive: 0.577.

For GGUGAAAAACCAUUUUGUUTT against Zfp764, the z-score was inactive: -1.53.

For GGCAACGGAAUUCCUUAAGTT against Dapk1, the z-score was inactive: -0.0115.

Consider CGUACAACCCAGGAGUUCUTT against Phxr1, for which the z-score is inactive: -0.274.

Turning to GCUGGGUAAAUACCAGCAATT against Slc6a14, the z-score was inactive: 0.862.

As to GCCAAAUCAGGAACAGCACTT against Trim29, the z-score is inactive: -0.382.

For GGUCAAGGAGUUCAUUCUGTT against Matn2, the z-score was inactive: -1.33.

Turning to CCCUCGGUAGCAAUAUAAATT against Ncoa2, the z-score is inactive: -0.0112.

For the sequence GGCUCUUGUUGUGAAGAAGTT against Tspan3, the z-score was inactive: 0.67.

Turning to GGAGGUAAAGGAAAACUCUTT against Fmo1, the z-score is inactive: 0.27.

Consider GUGCAAAUUACAGAAAUUCTT against Mex3b, for which the z-score was inactive: 0.43.

Regarding CCUAAUCCUUUAGUGUCUATT against Zmym2, the z-score is inactive: -0.0463.

For the sequence GGCUUUGGAAUCAUUCAUATT against Zfp759, the z-score is inactive: -0.534.

For the sequence CCCUGUAUAUAUGAUGACATT against Ldhd, the z-score is inactive: -1.83.

On to GAUGAAUACAUGGAGUCUCTT against C1qtnf3, for which the z-score was inactive: 0.265.

Consider GGGUUUUCAGGAGUAUGUCTT against Vmn1r230, for which the z-score was inactive: -1.48.

In the case of GGCUCAGAUCAGAACUACGTT against Inpp4a, the z-score is inactive: -0.129.

As to CGACCUACUUGGGAUGAUGTT against Pea15b, the z-score was inactive: 0.683.

As to GGAUGAUUGCUGACGUGGATT against Bax, the z-score is inactive: 0.299.

For GCUGUACUAUGCUAAAAGGTT against Ghr, the z-score was inactive: 0.13.

For GGAAGGACAAUCAGUUCCUTT against Thsd7b, the z-score was inactive: 0.999.

Turning to GGGUGAAAACUCAUUUUAUTT against St6gal2, the z-score is inactive: -0.33.

With GCCUUCAUCACUUACACGUTT against Sstr5, the z-score is inactive: 1.35.

On to GCAAACUUAAAGUGUCUCUTT against Ewsr1, for which the z-score was inactive: -0.769.

On to GGUCUUCGAAACACAGCUGTT against Exoc3l2, for which the z-score was inactive: -0.402.

Regarding GGACACUUUCCAAUGGUGATT against Npsr1, the z-score was inactive: 1.25.

For the sequence “GGACCAGCAAACUAAGAGATT against 4930449I24Rik”, the z-score was inactive: -0.107.

Turning to GGAUUUUGGAUGAAAACACTT against Tmem106a, the z-score is inactive: 0.302.

As to GGACAAGUUUGACUGUUACTT against Als2cl, the z-score is inactive: 0.158.

As to CCUCCUGACCUUAAUCUUGTT against P2rx1, the z-score was inactive: 0.507.

Turning to GCAGAUGUCUCAUUUCCGUTT against Car2, the z-score is inactive: 0.186.

As to GGCAGAGCCUAUGAUCUAUTT against Gprin1, the z-score is inactive: -0.582.

Consider CGGGCACUAGAACAAGAACTT against Arvcf, for which the z-score was inactive: -0.347.

As for GGGCUCGACUCUUAAUUGUTT against Mapkapk5, the z-score was inactive: 0.282.

GGGCAAAGUACUCUACACCTT against Fgd5: the z-score is inactive: -0.736.

Turning to GCAUAUCCUCUUUCGAAGGTT against Adra2c, the z-score was inactive: 1.39.

As to GGUGCUAAGUUUUGUAUCUTT against Prpf38a, the z-score is inactive: -0.967.

As for GGACAAAAGCAAAGAAAAGTT against R3hdm2, the z-score was inactive: -0.822.

Take GGAGACUGGAGAGCAAAAUTT against Krt18: the z-score was inactive: -1.44.

With GGUUCUGAAAGAGUGUUAGTT against Htatsf1, the z-score was inactive: -1.58.

Turning to GGAUAAGAUGGAAAUCCGUTT against Xpo6, the z-score is inactive: -0.594.

In the case of GGUCAUAUGGAGAACGAACTT against Snn, the z-score is inactive: 1.7.

For GGGAGCAGAAGCGAAAAGATT against Espn, the z-score was inactive: 0.218.

Consider GGAAAUCGAGGACUUAUACTT against Wnk4, for which the z-score was active: 3.54.

With GCCAUAGCAUAGCUCCCAGTT against Fastkd1, the z-score is inactive: -0.859.

With GGAAAUACAGAGGGCGAAATT against Espn, the z-score was inactive: 1.9.

Regarding GAAAACUCAAACAGCAUAUTT against Vmn1r216, the z-score was inactive: 0.833.

Regarding CCCUGUUAUCCGAUUGGAUTT against Serpina7, the z-score is inactive: 0.182.

Consider GGAAGACUGUAACACCAUCTT against Ankrd61, for which the z-score is inactive: -1.47.

GCCGCCCAGACAGAUAAACTT against Bag3: the z-score is inactive: 1.18.

As to GGCAUGUGUGAGAAUCAAUTT against Clec2h, the z-score was inactive: -0.732.

Turning to GGCAAACCUCAAUGAGUUUTT against Catsperd, the z-score is inactive: 0.114.

For GCAACGUGUCUUUUCAAACTT against P2ry10b, the z-score is inactive: -0.223.

AUUUUGGUGGAGGUAACUATT against Hnrnpa3: the z-score was inactive: -1.67.

For GGAGUCUUGUCAUCUCCAUTT against Nup35, the z-score is inactive: -0.79.

Take GCUCGCCAGAAAAUUGACCTT against Pmm1: the z-score was inactive: -0.979.

For GGUCACAGCCUACAAUCGATT against Sgca, the z-score was inactive: -1.4.

Take GGAAAUUGGGACUCACAUCTT against Trappc13: the z-score was inactive: -0.0912.

As for GGAAUUGAUCCCAUUUUAATT against Ap4b1, the z-score is inactive: 0.281.

In the case of CCCGUAUUUGGUGGUCUGCTT against Hyal1, the z-score was inactive: -0.556.

With GCUCUUAAGGUCUUUUAAATT against Crkl, the z-score is inactive: -1.62.

On to GCAUGCAUUCGUGAAGAAUTT against Plch1, for which the z-score was inactive: 1.46.

Regarding GCUACUUUGUCCCUCUUACTT against Olfr33, the z-score was inactive: -0.0881.

For GGCUUUAAGAAUGUAUCGCTT against Dpp3, the z-score is inactive: -0.751.

With GGAUAUCUCGGGUUGAAUUTT against Aurka, the z-score is inactive: -1.38.

On to GGAGAAACCUGGAAGAAGATT against Traf3ip3, for which the z-score was inactive: -0.345.

In the case of CCUUUCACAUUCAUGUGUATT against Rgs19, the z-score was inactive: -0.0448.

Consider GCUCGAGAGUACUGUAGGCTT against Kat8, for which the z-score is active: -2.41.

As to GGGAGGUGGAAAGCUCUCUTT against Olfr1256, the z-score was inactive: 0.613.

Turning to GCAUUUGGAAACGAUCAAGTT against Chst4, the z-score was inactive: -0.11.

Regarding AUUGGUUUUCUGGUGUUAATT against Olfr553, the z-score is inactive: -0.253.

For GGGAGCUUCUUUUUUCCAATT against Ctf1, the z-score is inactive: 0.645.

Regarding GGGUUUGUUGUCAUUCCUCTT against Mfsd14a, the z-score was inactive: -0.844.

On to GCAUUAUAAAAAGGUUCCGTT against Atp2b1, for which the z-score was inactive: 1.81.

For the sequence GGCAAGAGUGCCUCUGAAATT against Ccnb1, the z-score was inactive: -0.037.

Consider GCUGGGACAGAAAGAACAATT against Ndufa4, for which the z-score is inactive: 0.968.

In the case of GCUACUCCUUAGAACACGGTT against Spry1, the z-score is inactive: 0.839.

“GCUUUUGUAGUGACCAGCATT against A730045E13Rik”: the z-score was inactive: -0.225.

For the sequence GGCAGUAUGAGAGGUAUUUTT against Entpd7, the z-score is inactive: 0.345.

As for GCAAAAGGUGCUCAUUUAATT against Phf14, the z-score was inactive: 0.736.

Turning to GGAAGAAAGAAUUGAACUUTT against Add3, the z-score was inactive: 1.02.

As for GCCCACAGUCAUUAAACUATT against Nipal4, the z-score is inactive: 0.723.

For CGACUGUUACGUUGUUUGGTT against Srp9, the z-score is inactive: -1.96.

For CCUUGGGAAUUACCCAGAGTT against Cage1, the z-score is inactive: -0.565.

On to “ACCCUUCCCUAUUCGUACATT against 1700016K19Rik”, for which the z-score was inactive: -1.11.

Regarding GGUUAAAAGAGGAGAUGUUTT against Ttc1, the z-score is inactive: -1.33.

For the sequence GCUACAUAGCCCUGAUUGCTT against Foxs1, the z-score is inactive: -0.689.

For GGCUUUUCAAUAUAGUUCCTT against Reg3a, the z-score is inactive: 0.237.

For CGGUGAUAACUUCAAGACGTT against Rbp2, the z-score is inactive: -0.192.

These data come from PubChem BioAssay AID1508600 (Functional Genomics Laboratory (NCATS/FGL), 2020).
